Measured values from the supplement of paper PMC4604168 (melanoma cell lines).
Some of the results follow. Many values rest on one well or one pass, so single values are uncertain.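 Imaging used 1,536-well plates; nuclei positive for cleaved PARP by antibody were divided by total DNA-stained nuclei to yield the apoptosis fraction. Doses for screening kept most cells viable, and cell lines differ markedly in resting and induced cleaved-PARP levels.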

test system: SkMel30; assay: cleaved PARP positive nuclei fraction relative to DMSO control; melanoma cells; higher = more apoptosis; conditions: library dose: low library concentration; 72 h

SMILES | cleaved PARP positive nuclei fraction [%]
C[C@]12O[C@H](C[C@]1(O)CO)n1c3ccccc3c3c4c(c5c6ccccc6n2c5c31)CNC4=O [Lestaurtinib] + CCN(CC)CCCCNc1ncc2cc(-c3cc(OC)cc(OC)c3)c(NC(=O)NC(C)(C)C)nc2n1 [PD173074] (first compound 0.004 µM, partner dose 0.1 µM) | 86.8
N#Cc1c(O)c2c(-c3ccc(-c4ccccc4O)cc3)csc2[nH]c1=O + O=C(Oc1ccc([N+](=O)[O-])cc1)N1CCC(C(O)(c2ccc3c(c2)OCO3)c2ccc3c(c2)OCO3)CC1 [JZL184] (first compound 2 µM, partner dose 1 µM) | 22
C[C@]12O[C@H](C[C@]1(O)CO)n1c3ccccc3c3c4c(c5c6ccccc6n2c5c31)CNC4=O [Lestaurtinib] + O=c1cc(-c2cccc3c2Sc2ccccc2S3)oc(N2CCOCC2)c1 [KU55933] (first compound 0.004 µM, partner dose 1 µM) | 84.7
CCc1ccc(CCOc2ccc(CC3SC(=O)NC3=O)cc2)nc1 (stereo unspecified) [pioglitazone] + O=C(Oc1ccc([N+](=O)[O-])cc1)N1CCC(C(O)(c2ccc3c(c2)OCO3)c2ccc3c(c2)OCO3)CC1 [JZL184] (first compound 2 µM, partner dose 1 µM) | 323
COc1cc2c(Oc3ccc4[nH]c(C)cc4c3F)ncnc2cc1OCCCN1CCCC1 [cediranib] + Cc1cc(SCc2sc(-c3ccc(C(F)(F)F)c(F)c3)nc2C)ccc1OCC(=O)O [GW0742] (first compound 0.4 µM, partner dose 2 µM) | 53.4
Cc1cc(SCc2sc(-c3ccc(C(F)(F)F)c(F)c3)nc2C)ccc1OCC(=O)O + O=C(Oc1ccc([N+](=O)[O-])cc1)N1CCC(C(O)(c2ccc3c(c2)OCO3)c2ccc3c(c2)OCO3)CC1 [JZL184] (first compound 2 µM, partner dose 1 µM) | 88.5
Cc1cc(SCc2sc(-c3ccc(C(F)(F)F)c(F)c3)nc2C)ccc1OCC(=O)O + COc1cc(N2CCC(N3CCN(C)CC3)CC2)ccc1Nc1ncc(Cl)c(Nc2ccccc2S(=O)(=O)C(C)C)n1 [NVP-TAE684] (first compound 2 µM, partner dose 0.08 µM) | 73.7
C[C@]12O[C@H](C[C@]1(O)CO)n1c3ccccc3c3c4c(c5c6ccccc6n2c5c31)CNC4=O [Lestaurtinib] + COC(=O)c1sccc1S(=O)(=O)Nc1ccc(Nc2ccccc2)cc1OC [GSK0660] (first compound 0.004 µM, partner dose 1 µM) | 504
C[C@]12O[C@H](C[C@]1(O)CO)n1c3ccccc3c3c4c(c5c6ccccc6n2c5c31)CNC4=O [Lestaurtinib] + CC1(C)NC(=O)N(c2ccc([N+](=O)[O-])c(C(F)(F)F)c2)C1=O [nilutamide] (first compound 0.004 µM, partner dose 1 µM) | 77.1
O=C1NC(=O)/C(=C/c2ccc(-c3ccc(F)cc3O)o2)S1 + O=C(Oc1ccc([N+](=O)[O-])cc1)N1CCC(C(O)(c2ccc3c(c2)OCO3)c2ccc3c(c2)OCO3)CC1 [JZL184] (first compound 1 µM, partner dose 1 µM) | 154
Oc1cc(-c2nc(-c3ccccc3)[nH]c2-c2ccncc2)ccc1Cl + O=C(Oc1ccc([N+](=O)[O-])cc1)N1CCC(C(O)(c2ccc3c(c2)OCO3)c2ccc3c(c2)OCO3)CC1 [JZL184] (first compound 0.2 µM, partner dose 1 µM) | 372
C[C@]12O[C@H](C[C@]1(O)CO)n1c3ccccc3c3c4c(c5c6ccccc6n2c5c31)CNC4=O [Lestaurtinib] + O=S(=O)(c1ccccc1)N(CC(F)(F)F)c1ccc(C(O)(C(F)(F)F)C(F)(F)F)cc1 [T0901317] (first compound 0.004 µM, partner dose 1.4 µM) | 58
NCC(=O)Nc1ccc(-n2nc(C(F)(F)F)cc2-c2ccc3c(ccc4ccccc43)c2)cc1 + O=C(Oc1ccc([N+](=O)[O-])cc1)N1CCC(C(O)(c2ccc3c(c2)OCO3)c2ccc3c(c2)OCO3)CC1 [JZL184] (first compound 1 µM, partner dose 1 µM) | 104
C[C@@H]1CCN(C(=O)CC#N)C[C@@H]1N(C)c1ncnc2[nH]ccc12 + C/C(O)=C(\C#N)C(=O)Nc1cc(Br)ccc1Br [LFM-A13] (first compound 1 µM, partner dose 2 µM) | 62.6
C[As](C)SC[C@H](NC(=O)CC[C@H](N)C(=O)O)C(=O)NCC(=O)O [Darinaparsin] + O=C(Nc1ccccc1)c1cc([N+](=O)[O-])ccc1Cl [GW9662] (first compound 0.4 µM, partner dose 2 µM) | 16.8
C[C@]12O[C@H](C[C@]1(O)CO)n1c3ccccc3c3c4c(c5c6ccccc6n2c5c31)CNC4=O [Lestaurtinib] + O=C(O)c1ccc(-c2c[nH]c3ncc(-c4ccccc4)cc23)cc1C1CCCC1 [GSK650394] (first compound 0.004 µM, partner dose 0.16 µM) | 70.6

Part of the list above, tab-delimited:
SMILES	cleaved PARP positive nuclei fraction [%]
Cc1cc(SCc2sc(-c3ccc(C(F)(F)F)c(F)c3)nc2C)ccc1OCC(=O)O + O=C(Oc1ccc([N+](=O)[O-])cc1)N1CCC(C(O)(c2ccc3c(c2)OCO3)c2ccc3c(c2)OCO3)CC1 [JZL184] (first compound 2 µM, partner dose 1 µM)	88.5
Cc1cc(SCc2sc(-c3ccc(C(F)(F)F)c(F)c3)nc2C)ccc1OCC(=O)O + COc1cc(N2CCC(N3CCN(C)CC3)CC2)ccc1Nc1ncc(Cl)c(Nc2ccccc2S(=O)(=O)C(C)C)n1 [NVP-TAE684] (first compound 2 µM, partner dose 0.08 µM)	73.7

Remaining list, next part.

SMILES | cleaved PARP positive nuclei fraction [%]
C[C@]12O[C@H](C[C@]1(O)CO)n1c3ccccc3c3c4c(c5c6ccccc6n2c5c31)CNC4=O [Lestaurtinib] + Oc1cc(-c2nc(-c3ccccc3)[nH]c2-c2ccncc2)ccc1Cl [L779450] (first compound 0.004 µM, partner dose 0.2 µM) | 55.2
COc1ccc2c(c1)CCC1C2CCC2(C)C(NCCCCCCN3C(=O)C=CC3=O)CCC12 (stereo unspecified) + C/C(O)=C(\C#N)C(=O)Nc1cc(Br)ccc1Br [LFM-A13] (first compound 0.4 µM, partner dose 2 µM) | 73.6
Cc1cc(SCc2sc(-c3ccc(C(F)(F)F)c(F)c3)nc2C)ccc1OCC(=O)O + C/C(O)=C(\C#N)C(=O)Nc1cc(Br)ccc1Br [LFM-A13] (first compound 2 µM, partner dose 2 µM) | 17.6
COC(=O)c1sccc1S(=O)(=O)Nc1ccc(Nc2ccccc2)cc1OC + C/C(O)=C(\C#N)C(=O)Nc1cc(Br)ccc1Br [LFM-A13] (first compound 1 µM, partner dose 2 µM) | 210
O=C(O)c1ccc(-c2c[nH]c3ncc(-c4ccccc4)cc23)cc1C1CCCC1 + O=C(Oc1ccc([N+](=O)[O-])cc1)N1CCC(C(O)(c2ccc3c(c2)OCO3)c2ccc3c(c2)OCO3)CC1 [JZL184] (first compound 0.16 µM, partner dose 1 µM) | 69.5
C[C@@H]1CCN(C(=O)CC#N)C[C@@H]1N(C)c1ncnc2[nH]ccc12 + Cc1cc(SCc2sc(-c3ccc(C(F)(F)F)c(F)c3)nc2C)ccc1OCC(=O)O [GW0742] (first compound 1 µM, partner dose 2 µM) | 12.6
O=C(Nc1cccc(Cl)c1)Nc1ncc(CCNc2ncnc3ccsc23)s1 + Cc1cc(SCc2sc(-c3ccc(C(F)(F)F)c(F)c3)nc2C)ccc1OCC(=O)O [GW0742] (first compound 0.0008 µM, partner dose 2 µM) | 49.9
C[C@]12O[C@H](C[C@]1(O)CO)n1c3ccccc3c3c4c(c5c6ccccc6n2c5c31)CNC4=O [Lestaurtinib] + COc1cc2ncnc(Nc3ccc(Oc4ccccc4)cc3)c2cc1OC [SrcI1] (first compound 0.004 µM, partner dose 2 µM) | 97.3
C[As](C)SC[C@H](NC(=O)CC[C@H](N)C(=O)O)C(=O)NCC(=O)O [Darinaparsin] + COc1ccc(COc2ccc(Cc3cnc(N)nc3N)cc2OC)cc1 [GW2580] (first compound 0.4 µM, partner dose 1 µM) | 67.1
C[C@]12O[C@H](C[C@]1(O)CO)n1c3ccccc3c3c4c(c5c6ccccc6n2c5c31)CNC4=O [Lestaurtinib] + COc1ccc(-c2ccc3c(N4CCOCC4)nc(N4C[C@@H](C)O[C@@H](C)C4)nc3n2)cc1CO [KU0063794] (first compound 0.004 µM, partner dose 0.02 µM) | 203
O=S(=O)(c1ccccc1)N(CC(F)(F)F)c1ccc(C(O)(C(F)(F)F)C(F)(F)F)cc1 + Cc1cc(SCc2sc(-c3ccc(C(F)(F)F)c(F)c3)nc2C)ccc1OCC(=O)O [GW0742] (first compound 1.4 µM, partner dose 2 µM) | 160
COc1ccc(COc2ccc(Cc3cnc(N)nc3N)cc2OC)cc1 + Cc1cc(SCc2sc(-c3ccc(C(F)(F)F)c(F)c3)nc2C)ccc1OCC(=O)O [GW0742] (first compound 1 µM, partner dose 2 µM) | 51
C[As](C)SC[C@H](NC(=O)CC[C@H](N)C(=O)O)C(=O)NCC(=O)O [Darinaparsin] + CCc1ccc(CCOc2ccc(CC3SC(=O)NC3=O)cc2)nc1 [pioglitazone] (first compound 0.4 µM, partner dose 2 µM) | 114
O=C(Oc1ccc([N+](=O)[O-])cc1)N1CCC(C(O)(c2ccc3c(c2)OCO3)c2ccc3c(c2)OCO3)CC1 + CC(C)CCN1c2nc(Nc3cc(F)c(O)c(F)c3)ncc2N(C)C(=O)C1C [BID1870] (first compound 1 µM, partner dose 0.2 µM) | 241
CO[C@H]1C[C@@H]2CC[C@@H](C)[C@@](O)(O2)C(=O)C(=O)N2CCCC[C@H]2C(=O)O[C@H]([C@H](C)C[C@@H]2CC[C@@H](OCCO)[C@H](OC)C2)CC(=O)[C@H](C)/C=C(\C)[C@@H](O)[C@@H](OC)C(=O)[C@H](C)C[C@H](C)/C=C/C=C/C=C/1C [everolimus] + Cc1cc(SCc2sc(-c3ccc(C(F)(F)F)c(F)c3)nc2C)ccc1OCC(=O)O [GW0742] (first compound 0.02 µM, partner dose 2 µM) | 129
